We go through 1 molecule from patent US20050153991A1 (Cyclacel Limited, priority 2003, published 2005).

The test system of this assay is PKC.

The IC50 is the concentration that gives 50% inhibition. A lower IC50 goes with greater potency.

Where only a bound is given, the exact number is not on record here.

In turn, `CC[C@H](CO)Nc1nc(NCc2ccccc2)c2ncn(C(C)C)c2n1` (racemic) [roscovitine, 2-[(1-ethyl-2-hydroxyethyl)amino]-6-benzylamine-9-isopropylpurine] yielded an IC50 of over 50 µM.
